Data as given in PubChem BioAssay AID1259254 (NCATS, 2017).
In all, the deposit lists about 59,000 reagents; this is an unselected part. Of all reagents, about 1,550 (2.6%) got an active call. 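G2 share is only a proxy for re-replication; each gene was hit by three separate siRNAs, and active genes were retested.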 Reagents against one gene are numbered here. Not all columns of the deposit are shown. The record does not give: the amount of reagent.

- Screen: 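Gene knock-downs that lead to re-replication, shown by excess G2 DNA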 (primary screen)
- System: human HCT116 colorectal cancer cells
- Reagents: single siRNA against human genes
- Time to read-out: 3 days
- Measured: 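Nuclei stained with Hoechst and imaged; cell-cycle phase assigned by DNA content; G2 share scaled per plate, non-targeting siRNA 0%, GMNN siRNA 100%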
- Reading the numbers: G2 robust z-score and G2 cells, % of GMNN control: higher = more G2 cells, more excess DNA replication
- Active means: 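An siRNA counts as active if its G2 robust z-score lies at least 5 MADs above the screen median; here such calls match roughly 38% of GMNN control or more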

AKR7A3 (aldo-keto reductase family 7 member A3) #1
- G2 robust z-score: -1.2
- G2 cells, % of GMNN control: -5.5
- Outcome: inactive

AKR7A3 (aldo-keto reductase family 7 member A3) #2
- G2 robust z-score: -0.582
- G2 cells, % of GMNN control: -1.13
- Outcome: inactive

AKR7A3 (aldo-keto reductase family 7 member A3) #3
- G2 robust z-score: 0.107
- G2 cells, % of GMNN control: 3.72
- Outcome: inactive

FBXL12 (F-box and leucine rich repeat protein 12) #1
- G2 robust z-score: -0.274
- G2 cells, % of GMNN control: 1.04
- Outcome: inactive

FBXL12 (F-box and leucine rich repeat protein 12) #2
- G2 robust z-score: 0.542
- G2 cells, % of GMNN control: 6.78
- Outcome: inactive

FBXL12 (F-box and leucine rich repeat protein 12) #3
- G2 robust z-score: -0.108
- G2 cells, % of GMNN control: 2.21
- Outcome: inactive

STEAP2 (STEAP2 metalloreductase) #1
- G2 robust z-score: -0.272
- G2 cells, % of GMNN control: 1.05
- Outcome: inactive

STEAP2 (STEAP2 metalloreductase) #2
- G2 robust z-score: 1.38
- G2 cells, % of GMNN control: 12.7
- Outcome: inactive

STEAP2 (STEAP2 metalloreductase) #3
- G2 robust z-score: -0.471
- G2 cells, % of GMNN control: -0.343
- Outcome: inactive

MINDY4 (MINDY lysine 48 deubiquitinase 4) #1
- G2 robust z-score: 1.58
- G2 cells, % of GMNN control: 14.1
- Outcome: inactive

MINDY4 (MINDY lysine 48 deubiquitinase 4) #2
- G2 robust z-score: -1.01
- G2 cells, % of GMNN control: -4.11
- Outcome: inactive

MINDY4 (MINDY lysine 48 deubiquitinase 4) #3
- G2 robust z-score: 0.741
- G2 cells, % of GMNN control: 8.18
- Outcome: inactive

MBNL1-AS1 (MBNL1 antisense RNA 1) #1
- G2 robust z-score: -0.278
- G2 cells, % of GMNN control: 1.01
- Outcome: inactive

MBNL1-AS1 (MBNL1 antisense RNA 1) #2
- G2 robust z-score: -0.919
- G2 cells, % of GMNN control: -3.5
- Outcome: inactive

MBNL1-AS1 (MBNL1 antisense RNA 1) #3
- G2 robust z-score: -1.14
- G2 cells, % of GMNN control: -5.04
- Outcome: inactive

PSAP (prosaposin) #1
- G2 robust z-score: -1.01
- G2 cells, % of GMNN control: -4.11
- Outcome: inactive

PSAP (prosaposin) #2
- G2 robust z-score: -0.469
- G2 cells, % of GMNN control: -0.332
- Outcome: inactive

PSAP (prosaposin) #3
- G2 robust z-score: 0.793
- G2 cells, % of GMNN control: 8.55
- Outcome: inactive
